Results are given in words; binding and its absence hold for the method and conditions named. In cells and extracts the contact can be indirect. Some entries that bind do so weakly or less than the wild type.
Tests used:
[1] = molecular target: RAD18 (E3 ubiquitin ligase), endogenous (human (endogenous in HeLa)) (UniProt Q9NS91); experiment: proximity ligation; Duolink PLA with PARP10 and RAD18 antibodies on permeabilised, fixed HeLa cells; untreated or 0.4 mM HU for 3 hrs; wildtype cells and PARP10-knockout cells re-expressing PARP10 variants; knockdown of PARP10 or RAD18 as control of specificity
[2] = molecular target: RAD18 (E3 ubiquitin ligase), endogenous (human (endogenous in HeLa)) (UniProt Q9NS91); experiment: co-IP; anti-RAD18 antibody (control rabbit IgG) with Protein A/G agarose from HeLa extracts in HEPES lysis buffer (50 mM HEPES, 150 mM NaCl, 1 mM EDTA, 1% TritonX-100, 10% glycerol), 4 °C; blot for PARP10; wildtype cells untreated or treated with 0.4 mM HU or 150 µM cisplatin; PARP10-knockout cells re-expressing PARP10 variants

Protein sequences, listed by entry. Tags and fused reporters are not part of them.
UniProt Q9NS91: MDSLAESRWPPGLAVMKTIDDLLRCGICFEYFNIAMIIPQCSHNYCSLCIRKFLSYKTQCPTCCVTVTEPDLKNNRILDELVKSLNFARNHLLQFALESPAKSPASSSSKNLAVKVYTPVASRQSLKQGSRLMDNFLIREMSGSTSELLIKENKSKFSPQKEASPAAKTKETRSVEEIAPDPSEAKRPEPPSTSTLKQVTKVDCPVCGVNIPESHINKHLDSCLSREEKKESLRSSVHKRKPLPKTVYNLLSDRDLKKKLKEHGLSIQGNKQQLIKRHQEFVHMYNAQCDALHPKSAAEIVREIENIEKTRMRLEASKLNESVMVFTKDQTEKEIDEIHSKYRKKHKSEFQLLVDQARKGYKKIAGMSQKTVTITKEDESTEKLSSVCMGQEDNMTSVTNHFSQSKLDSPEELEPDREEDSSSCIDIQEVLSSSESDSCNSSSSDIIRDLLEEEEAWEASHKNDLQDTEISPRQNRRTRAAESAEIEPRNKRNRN

Binder | binding [1] | binding [2]
PARP10 (mono-ADP-ribosyltransferase), endogenous (protein, UniProt Q53GL7 1-1025) MVAMAEAEAGVAVEVRGLPPAVPDELLTLYFENRRRSGGGPVLSWQRLGCGGVLTFREPADAERVLAQADHELHGAQLSLRPAPPRAPARLLLQGLPPGTTPQRLEQHVQALLRASGLPVQPCCALASPRPDRALVQLPKPLSEADVRVLEEQAQNLGLEGTLVSLARVPQARAVRVVGDGASVDLLLLELYLENERRSGGGPLEDLQRLPGPLGTVASFQQWQVAERVLQQEHRLQGSELSLVPHYDILEPEELAENTSGGDHPSTQGPRATKHALLRTGGLVTALQGAGTVTMGSGEEPGQSGASLRTGPMVQGRGIMTTGSGQEPGQSGTSLRTGPMGSLGQAEQVSSMPMGSLEHEGLVSLRPVGLQEQEGPMSLGPVGSAGPVETSKGLLGQEGLVEIAMDSPEQEGLVGPMEITMGSLEKAGPVSPGCVKLAGQEGLVEMVLLMEPGAMRFLQLYHEDLLAGLGDVALLPLEGPDMTGFRLCGAQASCQAAEEFLRSLLGSISCHVLCLEHPGSARFLLGPEGQHLLQGLEAQFQCVFGTERLATATLDTGLEEVDPTEALPVLPGNAHTLWTPDSTGGDQEDVSLEEVRELLATLEGLDLDGEDWLPRELEEEGPQEQPEEEVTPGHEEEEPVAPSTVAPRWLEEEAALQLALHRSLEPQGQVAEQEEAAALRQALTLSLLEQPPLEAEEPPDGGTDGKAQLVVHSAFEQDVEELDRALRAALEVHVQEETVGPWRRTLPAELRARLERCHGVSVALRGDCTILRGFGAHPARAARHLVALLAGPWDQSLAFPLAASGPTLAGQTLKGPWNNLERLAENTGEFQEVVRAFYDTLDAARSSIRVVRVERVSHPLLQQQYELYRERLLQRCERRPVEQVLYHGTTAPAVPDICAHGFNRSFCGRNATVYGKGVYFARRASLSVQDRYSPPNADGHKAVFVARVLTGDYGQGRRGLRAPPLRGPGHVLLRYDSAVDCICQPSIFVIFHDTQALPTHLITCEHVPRASPDDPSGLPGRSPDT | binds | binds
PARP10 G888W catalytic site mutant, exogenously re-expressed in PARP10-knockout HeLa cells (protein, UniProt Q53GL7 1-1025) MVAMAEAEAGVAVEVRGLPPAVPDELLTLYFENRRRSGGGPVLSWQRLGCGGVLTFREPADAERVLAQADHELHGAQLSLRPAPPRAPARLLLQGLPPGTTPQRLEQHVQALLRASGLPVQPCCALASPRPDRALVQLPKPLSEADVRVLEEQAQNLGLEGTLVSLARVPQARAVRVVGDGASVDLLLLELYLENERRSGGGPLEDLQRLPGPLGTVASFQQWQVAERVLQQEHRLQGSELSLVPHYDILEPEELAENTSGGDHPSTQGPRATKHALLRTGGLVTALQGAGTVTMGSGEEPGQSGASLRTGPMVQGRGIMTTGSGQEPGQSGTSLRTGPMGSLGQAEQVSSMPMGSLEHEGLVSLRPVGLQEQEGPMSLGPVGSAGPVETSKGLLGQEGLVEIAMDSPEQEGLVGPMEITMGSLEKAGPVSPGCVKLAGQEGLVEMVLLMEPGAMRFLQLYHEDLLAGLGDVALLPLEGPDMTGFRLCGAQASCQAAEEFLRSLLGSISCHVLCLEHPGSARFLLGPEGQHLLQGLEAQFQCVFGTERLATATLDTGLEEVDPTEALPVLPGNAHTLWTPDSTGGDQEDVSLEEVRELLATLEGLDLDGEDWLPRELEEEGPQEQPEEEVTPGHEEEEPVAPSTVAPRWLEEEAALQLALHRSLEPQGQVAEQEEAAALRQALTLSLLEQPPLEAEEPPDGGTDGKAQLVVHSAFEQDVEELDRALRAALEVHVQEETVGPWRRTLPAELRARLERCHGVSVALRGDCTILRGFGAHPARAARHLVALLAGPWDQSLAFPLAASGPTLAGQTLKGPWNNLERLAENTGEFQEVVRAFYDTLDAARSSIRVVRVERVSHPLLQQQYELYRERLLQRCERRPVEQVLYHWTTAPAVPDICAHGFNRSFCGRNATVYGKGVYFARRASLSVQDRYSPPNADGHKAVFVARVLTGDYGQGRRGLRAPPLRGPGHVLLRYDSAVDCICQPSIFVIFHDTQALPTHLITCEHVPRASPDDPSGLPGRSPDT | binds | binds

Other lines, results leading:

binding [1] | binding [2] | Binder
binds | binds | PARP10 ΔPIP (V834A, F837A, Y838A triple mutant), exogenously re-expressed in PARP10-knockout HeLa cells (protein, UniProt Q53GL7 1-1025) MVAMAEAEAGVAVEVRGLPPAVPDELLTLYFENRRRSGGGPVLSWQRLGCGGVLTFREPADAERVLAQADHELHGAQLSLRPAPPRAPARLLLQGLPPGTTPQRLEQHVQALLRASGLPVQPCCALASPRPDRALVQLPKPLSEADVRVLEEQAQNLGLEGTLVSLARVPQARAVRVVGDGASVDLLLLELYLENERRSGGGPLEDLQRLPGPLGTVASFQQWQVAERVLQQEHRLQGSELSLVPHYDILEPEELAENTSGGDHPSTQGPRATKHALLRTGGLVTALQGAGTVTMGSGEEPGQSGASLRTGPMVQGRGIMTTGSGQEPGQSGTSLRTGPMGSLGQAEQVSSMPMGSLEHEGLVSLRPVGLQEQEGPMSLGPVGSAGPVETSKGLLGQEGLVEIAMDSPEQEGLVGPMEITMGSLEKAGPVSPGCVKLAGQEGLVEMVLLMEPGAMRFLQLYHEDLLAGLGDVALLPLEGPDMTGFRLCGAQASCQAAEEFLRSLLGSISCHVLCLEHPGSARFLLGPEGQHLLQGLEAQFQCVFGTERLATATLDTGLEEVDPTEALPVLPGNAHTLWTPDSTGGDQEDVSLEEVRELLATLEGLDLDGEDWLPRELEEEGPQEQPEEEVTPGHEEEEPVAPSTVAPRWLEEEAALQLALHRSLEPQGQVAEQEEAAALRQALTLSLLEQPPLEAEEPPDGGTDGKAQLVVHSAFEQDVEELDRALRAALEVHVQEETVGPWRRTLPAELRARLERCHGVSVALRGDCTILRGFGAHPARAARHLVALLAGPWDQSLAFPLAASGPTLAGQTLKGPWNNLERLAENTGEFQEVARAAADTLDAARSSIRVVRVERVSHPLLQQQYELYRERLLQRCERRPVEQVLYHGTTAPAVPDICAHGFNRSFCGRNATVYGKGVYFARRASLSVQDRYSPPNADGHKAVFVARVLTGDYGQGRRGLRAPPLRGPGHVLLRYDSAVDCICQPSIFVIFHDTQALPTHLITCEHVPRASPDDPSGLPGRSPDT
binds | binds | PARP10 wildtype, exogenously re-expressed in PARP10-knockout HeLa cells (protein, UniProt Q53GL7 1-1025) MVAMAEAEAGVAVEVRGLPPAVPDELLTLYFENRRRSGGGPVLSWQRLGCGGVLTFREPADAERVLAQADHELHGAQLSLRPAPPRAPARLLLQGLPPGTTPQRLEQHVQALLRASGLPVQPCCALASPRPDRALVQLPKPLSEADVRVLEEQAQNLGLEGTLVSLARVPQARAVRVVGDGASVDLLLLELYLENERRSGGGPLEDLQRLPGPLGTVASFQQWQVAERVLQQEHRLQGSELSLVPHYDILEPEELAENTSGGDHPSTQGPRATKHALLRTGGLVTALQGAGTVTMGSGEEPGQSGASLRTGPMVQGRGIMTTGSGQEPGQSGTSLRTGPMGSLGQAEQVSSMPMGSLEHEGLVSLRPVGLQEQEGPMSLGPVGSAGPVETSKGLLGQEGLVEIAMDSPEQEGLVGPMEITMGSLEKAGPVSPGCVKLAGQEGLVEMVLLMEPGAMRFLQLYHEDLLAGLGDVALLPLEGPDMTGFRLCGAQASCQAAEEFLRSLLGSISCHVLCLEHPGSARFLLGPEGQHLLQGLEAQFQCVFGTERLATATLDTGLEEVDPTEALPVLPGNAHTLWTPDSTGGDQEDVSLEEVRELLATLEGLDLDGEDWLPRELEEEGPQEQPEEEVTPGHEEEEPVAPSTVAPRWLEEEAALQLALHRSLEPQGQVAEQEEAAALRQALTLSLLEQPPLEAEEPPDGGTDGKAQLVVHSAFEQDVEELDRALRAALEVHVQEETVGPWRRTLPAELRARLERCHGVSVALRGDCTILRGFGAHPARAARHLVALLAGPWDQSLAFPLAASGPTLAGQTLKGPWNNLERLAENTGEFQEVVRAFYDTLDAARSSIRVVRVERVSHPLLQQQYELYRERLLQRCERRPVEQVLYHGTTAPAVPDICAHGFNRSFCGRNATVYGKGVYFARRASLSVQDRYSPPNADGHKAVFVARVLTGDYGQGRRGLRAPPLRGPGHVLLRYDSAVDCICQPSIFVIFHDTQALPTHLITCEHVPRASPDDPSGLPGRSPDT

Source: paper PMC11266678
